Values quoted from earlier work, collected in US20230414621A1, “NO-PDE5 INHIBITOR FOR USE IN TREATING DRY AGE-RELATED MACULAR DEGENERATION, GEOGRAPHIC ATROPHY AND GLAUCOMA-ASSOCIATED NEURODEGENERATION” (Nicox S.A., priority 2020, published 2023).
For at least one compound, name, drawing or mass did not settle the structure.

What was measured:
[1] = tested on: retinal ganglion cells (RGCs); details: orally administered, murine POAG and PACG models
[2] = tested on: RPE

| Compound | IOP or mean arterial pressure [1] | IOP-induced degeneration of retinal ganglion cells (RGCs) [1] | oxidized lipid-induced cell death in RPE [2] |
| --- | --- | --- | --- |
| CN1CC(=O)N2[C@H](c3ccc4c(c3)OCO4)c3[nH]c4ccccc4c3C[C@@H]2C1=O [tadalafil] | did not alter | prevented | – |
| Cc1c(C)c2c(c(C)c1O)CCC(C)(COc1ccc(CC3SC(=O)NC3=O)cc1)O2 (stereo not drawn) [troglitazone] | – | – | suppresses |
